The record followed here is patent publication US20230339886A1 (University of Florida Research Foundation, Incorporated, priority 2020, published 2023).

Chains of the proteins cited; added tags and fusions are not shown. A line that says so, or that is headed by a name, gives the form on record, which may keep a tag or linker. Residues count along the entry.
UniProt P20393, 281-614 with tags or gaps DEL324-422 limits assumed: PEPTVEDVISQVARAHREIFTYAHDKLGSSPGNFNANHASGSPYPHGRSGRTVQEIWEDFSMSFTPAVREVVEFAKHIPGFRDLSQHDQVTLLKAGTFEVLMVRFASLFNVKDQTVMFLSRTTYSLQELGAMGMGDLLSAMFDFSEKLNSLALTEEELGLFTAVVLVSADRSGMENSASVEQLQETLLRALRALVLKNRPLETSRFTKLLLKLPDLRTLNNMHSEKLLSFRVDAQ
UniProt Q9Y618, 2335-2356 partner limits assumed: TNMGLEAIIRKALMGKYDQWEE

The target in this experiment is REV-ERBα LBD (human; residues 281-614 Δ324-422) (Homo sapiens, UniProt P20393, DEL324-422). Description: TR-FRET corepressor interaction assay (REV-ERBα LBD, FITC-SMRT peptide). Type of experiment: biochemical. Conditions: read-out: REVERBα agonism (EC50 class, FRET assay), Table 2. A general note: Time-resolved FRET reads energy transfer from a long-lived donor to a nearby acceptor.

Structures are written as SMILES. Structures were worked out from names or drawings and are uncertain.

Usually EC50 stands for the concentration that produces a half-maximal response. Regarding `CC(C)Cn1cc(-c2ccc(NS(=O)(=O)C(C)C)cc2)c2ccc(-c3ccccc3)cc21`, the EC50 was over 3 µM.
The figure for `CC(C)Cn1cc(C2CCCN(S(=O)(=O)C(C)C)C2)c2ccc(-c3ccccc3)cc21` (centres unmarked) is 0.5 to 3 µM.
